PubChem BioAssay AID504804 – Drosophila RNAi Screening Center | 2011
The deposit covers about 19,000 reagents; below is an unselected part of those that have a named target and a result. In the full data, 47 (0.25%) are marked active. 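Signals are raw, not normalised; exact z-scores behind calls not deposited; actives needed confirmation, so some wells reaching 2 SD are inactive.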 The numbers tell different reagents against one gene apart. A plus sign joins genes that one reagent is predicted to hit.

Aim: 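dsRNAs that improve Kc cell survival under doxorubicin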 (primary screen)
Cells: Drosophila Kc cells
Reagent: long dsRNA against Drosophila genes, 0.5 µg dsRNA per well
Timing: 96 h (48 h knock-down, then 48 h drug)
Treatment: doxorubicin 5 µg/ml for 48 h, added 48 h after dsRNA
Measured: 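Luminescent ATP counts per replicate, not normalised, reflecting viable cells after 48 h dsRNA knock-down followed by 48 h of 5 µg/ml doxorubicin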
Direction: raw ATP luminescence: higher = more viable cells, protection from doxorubicin
Call rule: 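z-score of 2 or more over plate mean in both duplicates, retained only when retests and separate dsRNAs confirm the protection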

With Tlk (Tousled-like kinase) #1, what was measured?
raw ATP luminescence, replicate 1: 28140; raw ATP luminescence, replicate 2: 30240; Call: inactive

What is on record for Tlk (Tousled-like kinase) #2?
raw ATP luminescence, replicate 1: 16030; raw ATP luminescence, replicate 2: 16550; Call: inactive

Which result is listed for TwdlU (TweedleU)?
raw ATP luminescence, replicate 1: 80853; raw ATP luminescence, replicate 2: 58350; Call: inactive

What is on record for CG2852?
raw ATP luminescence, replicate 1: 48460; raw ATP luminescence, replicate 2: 70777; Call: inactive

Which result is listed for sNPF (short neuropeptide F precursor)?
raw ATP luminescence, replicate 1: 49190; raw ATP luminescence, replicate 2: 48890; Call: inactive

For CG14454, what does the deposit list?
raw ATP luminescence, replicate 1: 50590; raw ATP luminescence, replicate 2: 46127; Call: inactive

Which result is listed for CG9616?
raw ATP luminescence, replicate 1: 93730; raw ATP luminescence, replicate 2: 79610; Call: inactive

What is on record for CG8768?
raw ATP luminescence, replicate 1: 52847; raw ATP luminescence, replicate 2: 44773; Call: inactive

For egl (egalitarian), how do the results read?
raw ATP luminescence, replicate 1: 58090; raw ATP luminescence, replicate 2: 45033; Call: inactive

For CG13004, what was measured?
raw ATP luminescence, replicate 1: 3.54e5; raw ATP luminescence, replicate 2: 3.25e5; Call: inactive

With CysRS-m (Cysteinyl-tRNA synthetase, mitochondrial), what does the deposit list?
raw ATP luminescence, replicate 1: 66183; raw ATP luminescence, replicate 2: 55777; Call: inactive

What is on record for CG34168?
raw ATP luminescence, replicate 1: 66397; raw ATP luminescence, replicate 2: 69980; Call: inactive

Which result is listed for CG32299 + CG32298?
raw ATP luminescence, replicate 1: 1.86e5; raw ATP luminescence, replicate 2: 1.69e5; Call: inactive

For CG31792, what does the deposit list?
raw ATP luminescence, replicate 1: 54477; raw ATP luminescence, replicate 2: 63303; Call: inactive

What did the screen give for CG34354 #1?
raw ATP luminescence, replicate 1: 2.50e5; raw ATP luminescence, replicate 2: 2.47e5; Call: inactive

How did the screen score CG34354 #2?
raw ATP luminescence, replicate 1: 18860; raw ATP luminescence, replicate 2: 16070; Call: inactive

What did the screen give for CG34354 #3?
raw ATP luminescence, replicate 1: 11960; raw ATP luminescence, replicate 2: 11010; Call: inactive

How did the screen score CG34354 #4?
raw ATP luminescence, replicate 1: 73740; raw ATP luminescence, replicate 2: 47450; Call: inactive

For CG12115, what does the deposit list?
raw ATP luminescence, replicate 1: 3.68e5; raw ATP luminescence, replicate 2: 3.67e5; Call: inactive

For CG11668, what was measured?
raw ATP luminescence, replicate 1: 54540; raw ATP luminescence, replicate 2: 65730; Call: inactive

What did the screen give for CG31099?
raw ATP luminescence, replicate 1: 72190; raw ATP luminescence, replicate 2: 54430; Call: inactive

How did the screen score CG17267?
raw ATP luminescence, replicate 1: 64370; raw ATP luminescence, replicate 2: 80450; Call: inactive

With RpS29 + snoRNA:Psi18S-1275, what does the deposit list?
raw ATP luminescence, replicate 1: 43717; raw ATP luminescence, replicate 2: 35713; Call: inactive

Which result is listed for CG15260?
raw ATP luminescence, replicate 1: 72770; raw ATP luminescence, replicate 2: 70087; Call: inactive

What did the screen give for Lcp65Ad?
raw ATP luminescence, replicate 1: 91387; raw ATP luminescence, replicate 2: 89910; Call: inactive

With CG6845, how do the results read?
raw ATP luminescence, replicate 1: 63727; raw ATP luminescence, replicate 2: 84113; Call: inactive

What did the screen give for RN-tre (Related to the N terminus of tre oncogene)?
SD above plate mean: 2 to 3 SD above plate mean; Call: inactive

With CG8043, what was measured?
raw ATP luminescence, replicate 1: 54847; raw ATP luminescence, replicate 2: 59423; Call: inactive

4 of these entries, reformatted:
predicted target	reagent	SD above plate mean	raw ATP luminescence, replicate 1	raw ATP luminescence, replicate 2	Call
CysRS-m (Cysteinyl-tRNA synthetase, mitochondrial)	1		66183	55777	inactive
CG34168	1		66397	69980	inactive
CG32299 + CG32298	1		1.86e5	1.69e5	inactive
CG31792	1		54477	63303	inactive
